Laboratory results: PubChem BioAssay AID652243 (Drosophila RNAi Screening Center, 2013)

Purpose: 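Fly regulators of androgen-dependent reporter output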 (primary screen)
Cell system: Drosophila S2R+ cells
Knock-down reagent: long dsRNA against Drosophila genes
Time to read-out: 72 h (48 h, then 24 h hormone)
Conditions: synthetic androgen R1881 at 10 nM for 24 h
Detection: 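Firefly light from an androgen-responsive reporter and Renilla control light per well, raw and unnormalised, for each of two replicates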
Reading the numbers: firefly reporter light: higher = more light from androgen-responsive reporter; Renilla control light: higher = more constitutive control signal (cell number, transfection)
Hit rule: 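Across duplicate plates, a knock-down whose log firefly/Renilla ratio shifted a set fold down or up from the GFP/LacZ control mean was a hit; the downward cut appears as both 1.5 and 3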
Meaning of the calls: active = hit: reporter lowered or raised; inactive = no hit
The screen tested about 24,000 reagents; shown is an unselected part of those that have a named target and a result. Of all reagents, 246 (1%) are marked active. 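Plates not normalised; calls are printed but the firefly/Renilla ratio behind them is not deposited; fold cut for lowering reported inconsistently.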 Raw values are not corrected between plates. A plus sign joins genes that one reagent is predicted to hit. Not stated in the record: the amount of reagent.

| gene | amplicon | firefly reporter light, replicate 1 | firefly reporter light, replicate 2 | Renilla control light, replicate 1 | Renilla control light, replicate 2 | activity call |
| --- | --- | --- | --- | --- | --- | --- |
| inaF-C | DRSC38797 | 9.07e5 | 6.08e5 | 2.02e6 | 1.36e6 | inactive |
| Arf1 | DRSC11606 | 1.07e5 | 1.71e5 | 1.04e6 | 1.11e6 | inactive |
| CG11741 | DRSC14367 | 62623 | 78855 | 2.16e6 | 1.85e6 | inactive |
| Bcs1 | DRSC02789 | 85645 | 75907 | 6.83e5 | 6.28e5 | inactive |
| Cpr47Eg | DRSC07330 | 2.91e5 | 3.19e5 | 1.22e6 | 1.95e6 | inactive |
| fwe | DRSC10594 | 1.43e5 | 70898 | 9.82e5 | 7.78e5 | inactive |
| fwe | DRSC21400 | 1.32e5 | 1.61e5 | 2.11e6 | 2.20e6 | inactive |
| didum | DRSC07603 | 3.21e5 | 2.81e5 | 1.82e6 | 1.46e6 | inactive |
| CG8349 | DRSC03083 | 1.54e5 | 1.43e5 | 1.26e6 | 1.32e6 | inactive |
| Gnmt | DRSC15987 | 1.14e5 | 98738 | 1.60e6 | 1.50e6 | inactive |
| Fer2LCH | DRSC16672 | 1.79e5 | 1.79e5 | 2.20e6 | 2.85e6 | inactive |
| Fer2LCH | DRSC29169 | 4.50e5 | 3.45e5 | 1.10e6 | 1.01e6 | inactive |
| Patj | DRSC08712 | 1.17e6 | 7.39e5 | 1.73e6 | 9.05e5 | inactive |
| Patj | DRSC28714 | 2.97e5 | 2.67e5 | 1.57e6 | 1.48e6 | active |
| amos | DRSC03484 | 75959 | 71157 | 1.10e6 | 9.60e5 | inactive |
| amos | DRSC24784 | 8.41e5 | 1.26e6 | 8.61e5 | 8.88e5 | inactive |
| amos | DRSC38945 | 6.55e5 | 8.22e5 | 1.31e6 | 1.29e6 | inactive |
| CG17140 + CG17139 | DRSC02585 | 2.32e5 | 2.11e5 | 1.36e6 | 1.59e6 | inactive |
| CG17140 + CG17139 | DRSC02586 | 1.53e5 | 1.80e5 | 1.13e6 | 1.19e6 | inactive |
| Nelf-E | DRSC10567 | 1.97e5 | 2.24e5 | 2.28e6 | 1.36e6 | inactive |
| CG9877 | DRSC04587 | 4.39e5 | 4.97e5 | 2.71e6 | 2.05e6 | inactive |
| CG9877 | DRSC25386 | 1.17e6 | 1.19e6 | 1.23e6 | 1.57e6 | inactive |
| CG17261 | DRSC00498 | 88882 | 1.06e5 | 7.15e5 | 8.32e5 | inactive |
| CG14642 | DRSC12228 | 38308 | 54007 | 4.10e5 | 4.78e5 | inactive |
| stx | DRSC23075 | 5.68e5 | 6.66e5 | 7.17e5 | 6.52e5 | inactive |
| stx | DRSC29601 | 2.21e5 | 2.20e5 | 8.00e5 | 8.00e5 | inactive |
| CG14891 | DRSC15013 | 1.05e5 | 1.14e5 | 6.74e5 | 7.11e5 | inactive |
| CG14937 | DRSC02419 | 1.66e5 | 1.62e5 | 1.28e6 | 1.61e6 | inactive |
| CG17816 | DRSC15277 | 3.32e5 | 4.11e5 | 1.87e6 | 2.30e6 | inactive |
| CG17816 | DRSC29783 | 6.09e5 | 5.55e5 | 1.54e6 | 1.17e6 | inactive |
| SmydA-9 | DRSC17814 | 3.08e5 | 3.53e5 | 2.72e6 | 3.17e6 | inactive |
| CG34446 | DRSC24507 | 1.36e5 | 1.21e5 | 1.40e6 | 1.44e6 | inactive |
| Pex11c | DRSC14677 | 2.42e5 | 2.64e5 | 2.80e6 | 3.28e6 | inactive |
| CG14711 + Zaf1 | DRSC14934 | 1.45e5 | 1.48e5 | 1.72e6 | 1.49e6 | inactive |
| CG14711 + Zaf1 | DRSC23982 | 1.11e6 | 9.87e5 | 1.09e6 | 1.22e6 | inactive |
| Con | DRSC08652 | 7.51e5 | 9.16e5 | 6.42e5 | 1.34e6 | inactive |
| CG8441 | DRSC07180 | 9.26e5 | 7.68e5 | 2.03e6 | 1.54e6 | inactive |
| CG10345 | DRSC14138 | 77810 | 97216 | 4.19e5 | 5.17e5 | inactive |
| mtm | DRSC03576 | 3.92e5 | 5.04e5 | 9.37e5 | 1.25e6 | inactive |
| mtm | DRSC36764 | – | – | – | – | inactive |
| mtm | DRSC36765 | – | – | – | – | inactive |
| SmydA-1 | DRSC07200 | 7.29e5 | 4.64e5 | 2.68e6 | 2.14e6 | inactive |
| CG4372 | DRSC04466 | 2.31e5 | 3.08e5 | 2.36e6 | 2.16e6 | inactive |
| CG7988 | DRSC16358 | 1.51e5 | 1.63e5 | 1.48e6 | 1.59e6 | inactive |
| CG5498 | DRSC11608 | 31643 | 41972 | 3.09e5 | 3.61e5 | inactive |
| mthl9 | DRSC08506 | 62697 | 66603 | 1.11e6 | 1.04e6 | inactive |
| CG5556 | DRSC00687 | 1.35e5 | 1.37e5 | 9.25e5 | 1.14e6 | inactive |
| CG7985 | DRSC14128 | 1.00e5 | 86545 | 8.53e5 | 6.51e5 | inactive |
| Non1 | DRSC05954 | 7.19e5 | 7.96e5 | 1.01e6 | 1.04e6 | inactive |
| CG34428 | DRSC10119 | 1.64e5 | 1.33e5 | 1.85e6 | 1.76e6 | inactive |
| CG31407 | DRSC12761 | 1.43e5 | 66014 | 1.28e5 | 1.39e5 | inactive |
| CG9517 (retired record) | DRSC20192 | 5.90e5 | 5.92e5 | 3.78e6 | 3.29e6 | inactive |
| CG9517 (retired record) | DRSC20193 | 2.15e5 | 2.73e5 | 1.91e6 | 2.00e6 | inactive |
| CG9517 (retired record) | DRSC23550 | 7.18e5 | 7.64e5 | 7.42e5 | 1.02e6 | inactive |
| CG8774 | DRSC16445 | 20608 | 52784 | 2.00e5 | 2.75e5 | inactive |
| bmm | DRSC10502 | 9.34e5 | 6.52e5 | 2.29e6 | 2.30e6 | inactive |
| smp-30 | DRSC17059 | 1.52e5 | 2.54e5 | 2.48e6 | 3.30e6 | inactive |
| smp-30 | DRSC26913 | 4.27e5 | 3.91e5 | 5.95e5 | 6.24e5 | inactive |
| Tsp66E | DRSC09683 | 2.42e5 | 1.77e5 | 2.07e6 | 1.58e6 | inactive |
| mamo | DRSC19001 | 5.24e5 | 5.15e5 | 5.20e5 | 4.21e5 | inactive |
| mamo | DRSC19370 | 6.94e5 | 5.56e5 | 3.60e6 | 2.95e6 | inactive |
| mamo | DRSC19371 | 4.69e5 | 4.48e5 | 3.16e6 | 3.20e6 | inactive |
| mamo | DRSC19372 | 2.69e5 | 3.16e5 | 2.23e6 | 1.86e6 | inactive |
| mamo | DRSC23035 | 1.41e6 | 1.54e6 | 1.60e6 | 1.83e6 | inactive |
| mamo | DRSC25810 | 6.68e5 | 5.22e5 | 1.46e6 | 9.19e5 | inactive |
| mamo | DRSC26998 | 6.69e5 | 5.03e5 | 7.05e5 | 5.12e5 | inactive |
| mamo | DRSC29723 | 6.70e5 | 6.95e5 | 1.58e6 | 1.67e6 | inactive |
| Gorab | DRSC10383 | 1.63e5 | 90227 | 1.13e6 | 7.92e5 | inactive |
| Gorab | DRSC29314 | 1.25e6 | 1.20e6 | 1.24e6 | 1.52e6 | inactive |
| CG7907 | DRSC16339 | 2.49e5 | 2.83e5 | 3.32e6 | 3.00e6 | inactive |
| CG7907 | DRSC26041 | 2.96e5 | 2.41e5 | 7.29e5 | 5.66e5 | inactive |
| NP15.6 | DRSC16756 | 1.45e5 | 2.65e5 | 2.26e6 | 2.00e6 | inactive |
| NP15.6 | DRSC26741 | 5.29e5 | 3.70e5 | 5.72e5 | 5.67e5 | inactive |
| CG7236 | DRSC03037 | 47125 | 33420 | 4.43e5 | 4.09e5 | inactive |
| CG7236 | DRSC26976 | 5.24e5 | 4.05e5 | 1.14e6 | 6.47e5 | inactive |

Records above whose gene name begins with F or f:
| gene | amplicon | firefly reporter light, replicate 1 | firefly reporter light, replicate 2 | Renilla control light, replicate 1 | Renilla control light, replicate 2 | activity call |
| --- | --- | --- | --- | --- | --- | --- |
| fwe | DRSC10594 | 1.43e5 | 70898 | 9.82e5 | 7.78e5 | inactive |
| fwe | DRSC21400 | 1.32e5 | 1.61e5 | 2.11e6 | 2.20e6 | inactive |
| Fer2LCH | DRSC16672 | 1.79e5 | 1.79e5 | 2.20e6 | 2.85e6 | inactive |
| Fer2LCH | DRSC29169 | 4.50e5 | 3.45e5 | 1.10e6 | 1.01e6 | inactive |
